{"source": "PubChem BioAssay AID743454, Peter MacCallum Cancer Centre | 2014", "test": "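Genes whose loss kills vorinostat-resistant colon cancer cells under vorinostat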 (primary screen)", "system": "human HCT116-VR colon cancer cells, selected for vorinostat resistance", "reagent": "siRNA pool against human genes, 40 nM siRNA pool", "timing": "vorinostat for 24 h, read-out about 72 h after transfection", "conditions": "vorinostat at 2.5 µM final", "read-out": "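Two measures, CellTiter-Fluor viability and luminescent caspase 3/7 activity, each as fold change against same-plate mock wells, mean of duplicates, then screen-wide robust z-score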", "scale": "viability robust z-score: higher = more viable cells than screen typical; caspase robust z-score: higher = more caspase 3/7 activity than screen typical", "call rule": "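a knock-down is a hit when classed RV1 or RV2 for lowered viability, or CA1 or CA2 for caspase activation; those lethal without drug were dropped; hits were retested singly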", "note": "The whole screen tested about 18,000 reagents; below is a part drawn at random. In the full data, 450 (2.5%) got an active call. 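Single biological run; no consistent viability z cut-off exists, so the class columns, not z-scores, define the calls.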"}
{"gene knocked down": "NAF1 (GeneID 92345)", "viability hit class": "no change", "caspase hit class": "no change", "viability robust z-score": -0.82, "caspase robust z-score": 1.68, "Call": "inactive"}
{"gene knocked down": "LINC02914 (GeneID 283598)", "viability hit class": "no change", "caspase hit class": "no change", "viability robust z-score": -2.67, "caspase robust z-score": 4.52, "Call": "inactive"}
{"gene knocked down": "ULK2 (GeneID 9706)", "viability hit class": "no change", "caspase hit class": "no change", "viability robust z-score": -0.08, "caspase robust z-score": 0.38, "Call": "inactive"}
{"gene knocked down": "NOX3 (GeneID 50508)", "viability hit class": "no change", "caspase hit class": "no change", "viability robust z-score": 0.06, "caspase robust z-score": -0.52, "Call": "inactive"}
{"gene knocked down": "P2RX2 (GeneID 22953)", "viability hit class": "no change", "caspase hit class": "CA1 (caspase activation)", "viability robust z-score": -0.8, "caspase robust z-score": 5.17, "Call": "active"}
{"gene knocked down": "PPP1R9B (GeneID 84687)", "viability hit class": "no change", "caspase hit class": "no change", "viability robust z-score": -0.15, "caspase robust z-score": -0.47, "Call": "inactive"}
{"gene knocked down": "CYP2A7 (GeneID 1549)", "viability hit class": "no change", "caspase hit class": "no change", "viability robust z-score": 1.19, "caspase robust z-score": -0.3, "Call": "inactive"}
{"gene knocked down": "HOOK3 (GeneID 84376)", "viability hit class": "no change", "caspase hit class": "no change", "viability robust z-score": 1.06, "caspase robust z-score": 0.35, "Call": "inactive"}
{"gene knocked down": "C1orf52 (GeneID 148423)", "viability hit class": "RV2 (reduced viability)", "caspase hit class": "no change", "viability robust z-score": -2.96, "caspase robust z-score": 3.24, "Call": "active"}
{"gene knocked down": "UFSP2 (GeneID 55325)", "viability hit class": "no change", "caspase hit class": "no change", "viability robust z-score": 0.24, "caspase robust z-score": -0.39, "Call": "inactive"}
{"gene knocked down": "POLR2D (GeneID 5433)", "viability hit class": "RV2 (reduced viability)", "caspase hit class": "CA2 (caspase activation)", "viability robust z-score": -3.57, "caspase robust z-score": 6.06, "Call": "active"}
{"gene knocked down": "TMEM267 (GeneID 64417)", "viability hit class": "no change", "caspase hit class": "no change", "viability robust z-score": -0.6, "caspase robust z-score": -1.15, "Call": "inactive"}

Just “caspase hit class”, for 2 of the entries above:
NOX3 (GeneID 50508): no change
P2RX2 (GeneID 22953): CA1 (caspase activation)
